Data published in patent publication US4017487A, “7β-(D-5-amino-5-carboxyvaleramido )-7-methoxy-3-substituted-3-cephem-4-carboxylic acid antibiotics” (priority 1974, dated 1977).
At least one read-out could not be matched to a standard name with certainty.

Tested on: Alcaligenes faecalis (MB-9)
Assay: Bacterial inactivation, washed bacterial cells
Details: assayed on B. subtilis (MB-964) plates

CC(=O)OCC1=C(C(=O)O)N2C(=O)[C@@H](NC(=O)CCC[C@@H](N)C(=O)O)[C@H]2SC1 [Cephalosporin C]
Percent Inactivation (3 hour incubation, 4 mg/ml): > 99%
Percent Inactivation (4 hour incubation): > 99%
